Reference: PubChem BioAssay AID330 (DTP/NCI, 2004)
The list does not hold the whole screen: it is rich in T/C values a quarter to a half above the control, in often repeated tests (any T/C) and in doses without a T/C. Further doses and runs are listed elsewhere. T/C: endpoint of the treated group in % of that of the vehicle group. Some entries give survivors of the animals treated and no T/C: the source holds a T/C of zero for them, seemingly a mark for toxic or unscored doses. Some doses without a T/C left all or most animals alive at the check, yet need not have been tolerated: the source hardly ever lists a survival T/C far under the control, and the zero likely stands for such cases as well. Counts of survivors are from the toxicity check (mostly the fifth day) where no day follows; animals may have died later. Schedule codes are those of the source, read here as Q, the interval in days (D) or hours (H), X, the number of doses. Some entries hold several experiments; the results are listed from low to high. Where survival is the endpoint, this PubChem deposit counts one and a half times the control or more as active, and values a quarter to a half above the control carry no call in these data; other NCI protocols may use other cut-offs. Some T/C values are followed by the survivors on the day toxicity was checked, most often the fifth; where none is given, no animal had died by that day.

Tested on: P388 leukemia ip, CD2F1 mice, survival T/C
Test: NCI In Vivo Anticancer Drug Screen. Data for tumor model P388 Leukemia (intraperitoneal) in CD2F1 (CDF1) mice
Settings: T/C endpoint: median survival time, higher T/C = longer survival
[1] = dose: 200.0 mg/kg/injection, schedule: Q01DX009 (ip), vehicle: Klucel (hydroxypropylcellulose) (HPC)
[2] = dose: 100.0 mg/kg/injection, schedule: Q01DX005 (ip), vehicle: Klucel (hydroxypropylcellulose) (HPC)
[3] = dose: 200.0 mg/kg/injection, schedule: Q01DX005 (ip), vehicle: Klucel (hydroxypropylcellulose) (HPC)
[4] = dose: 25.0 mg/kg/injection, schedule: Q01DX009 (ip), vehicle: saline with Tween-80
[5] = dose: 50.0 mg/kg/injection, schedule: Q01DX009 (ip), vehicle: saline with Tween-80
[6] = dose: 100.0 mg/kg/injection, schedule: Q01DX009 (ip), vehicle: saline with Tween-80
[7] = dose: 100.0 mg/kg/injection, schedule: Q01DX009 (ip), vehicle: water
[8] = dose: 200.0 mg/kg/injection, schedule: Q01DX009 (ip), vehicle: water
[9] = dose: 400.0 mg/kg/injection, schedule: Q01DX009 (ip), vehicle: water
[10] = dose: 200.0 mg/kg/injection, schedule: Q01DX005 (ip), vehicle: saline with Tween-80
[11] = dose: 200.0 mg/kg/injection, schedule: Q01DX009 (ip), vehicle: saline with Tween-80
[12] = dose: 240.0 mg/kg/injection, schedule: Q01DX005 (ip), vehicle: saline with Tween-80
[13] = dose: 12.5 mg/kg/injection, schedule: Q01DX009 (ip), vehicle: distilled water + Tween-80
[14] = dose: 25.0 mg/kg/injection, schedule: Q01DX009 (ip), vehicle: distilled water + Tween-80
[15] = dose: 50.0 mg/kg/injection, schedule: Q01DX009 (ip), vehicle: distilled water + Tween-80
[16] = dose: 100.0 mg/kg/injection, schedule: Q01DX009 (ip), vehicle: distilled water + Tween-80
[17] = dose: 200.0 mg/kg/injection, schedule: Q01DX009 (ip), vehicle: distilled water + Tween-80
[18] = dose: 120.0 mg/kg/injection, schedule: Q01DX005 (ip), vehicle: saline with Tween-80

For `CCCCCCCCCCCCCC[N+]1([O-])CCCC1`, the survivor count (dose: 100.0 mg/kg/injection, schedule: Q01DX009 (ip), vehicle: saline) was 2 of 6 and the survivor count (dose: 200.0 mg/kg/injection, schedule: Q01DX009 (ip), vehicle: saline) was 0 of 6.
For `COc1cc([N+](=O)[O-])ccc1N=Cc1ccc(C=Nc2ccc([N+](=O)[O-])cc2OC)cc1`, the survivor count [1] was 6 of 6.
With `CN1CCCc2cccc(c2)CCC1` the survivor count [2] was 0 of 6 and the survivor count [3] was 0 of 6.
In the case of `CCC[n+]1c(/C=C/c2c(OC)cc(OC)cc2OC)ccc2ccccc21`, the survivor count (dose: 12.5 mg/kg/injection, schedule: Q01DX009 (ip), vehicle: saline with Tween-80) is reported as 0 of 6, the survivor count [4] is reported as 0 of 6 and the survivor count [5] is reported as 0 of 6.
In the case of `ClCc1cccc2c(CCl)cccc12`, the T/C [5] is reported as 125 % of control and the survivor count [6] is reported as 3 of 6.
`CC(=O)Nc1ccc(N=NN(C)c2ccccc2)cc1` was tested, and the survivor count (dose: 200.0 mg/kg/injection, schedule: Q01DX001 (ip), vehicle: saline) was 0 of 6.
For `CCN(CC)CCCC(C)NCC#CCNC(C)CCCN(CC)CC` (stereo not given), the survivor count (dose: 25.0 mg/kg/injection, schedule: Q01DX009 (ip), vehicle: water) was 1 of 6 and 3 of 6, the survivor count (dose: 50.0 mg/kg/injection, schedule: Q01DX009 (ip), vehicle: water) was 0 of 6 and the survivor count [7] was 0 of 6. For the same compound, the survivor count [8] was 0 of 6 and the survivor count [9] was 0 of 6.
In the case of `Fc1ccc(N2C(Cl)(Cl)C23c2ccccc2-c2ccccc23)cc1`, the T/C [5] is reported as 132 % of control and the T/C [6] is reported as 131 % of control.
`COc1cc(/C=C/C(=O)NCCc2c[nH]c3ccc(O)cc23)ccc1O` was tested, and the survivor count [2] was 6 of 6.
In the case of `COc1nc(N)c([N+](=O)[O-])c(C(Br)Br)n1`, the survivor count (dose: 50.0 mg/kg/injection, schedule: Q01DX005 (ip), vehicle: Klucel (hydroxypropylcellulose) (HPC)) is reported as 1 of 6, the survivor count [2] is reported as 0 of 6 and the survivor count [3] is reported as 0 of 6.
`Cc1cc(OP2(=O)Nc3cccc4cccc(c34)N2)ccc1Cl` was tested, and the survivor count [10] was 6 of 6.
With `NC(N)=Nc1ccc(-c2cc3cc(N=C(N)N)ccc3s2)cc1` the survivor count [2] was 1 of 5 and the survivor count [3] was 0 of 5.
In the case of `c1cnc2c(c1)Sc1ncccc1S2`, the survivor count [11] is reported as 2 of 6.
In the case of `O=C1c2ccccc2C(=O)c2c(NCCNCCNCCO)ccc(NCCNCCNCCO)c21`, the T/C [7] is reported as 136 % of control, the survivor count [7] is reported as 3 of 6 and the survivor count (dose: 128.0 mg/kg/injection, schedule: Q01DX009 (ip), vehicle: acid diluted with saline) is reported as 2 of 8. The survivor count [8] was 0 of 6 and the survivor count [9] was 0 of 6.
In the case of `OC(/C=C\CC(O)(C(F)(F)F)C(F)(F)F)(C(F)(F)F)C(F)(F)F`, the survivor count [4] is reported as 1 of 6, the survivor count [5] is reported as 0 of 6 and the survivor count [6] is reported as 0 of 6. The survivor count [11] was 0 of 6.
`O=C(OC1CCCc2ccccc21)c1ccc(N=Nc2ccccc2)cc1` (stereo not given) was tested, and the survivor count [12] was 6 of 6.
For `CCCCOC(OCCCC)C(C)N` (stereo not given), the survivor count (dose: 100.0 mg/kg/injection, schedule: Q01DX005 (ip), vehicle: saline with Tween-80) was 0 of 5 and the survivor count [10] was 0 of 5.
`CCOC(=O)Nc1cc2c(c(N)n1)N=C(c1ccc(C)c(C)c1)CN2` was tested, and the T/C (dose: 6.25 mg/kg/injection, schedule: Q01DX005 (ip), vehicle: saline with Tween-80) was 127 % of control, the T/C (dose: 12.5 mg/kg/injection, schedule: Q01DX005 (ip), vehicle: saline with Tween-80) was 144 % of control and the survivor count (dose: 25.0 mg/kg/injection, schedule: Q01DX005 (ip), vehicle: saline with Tween-80) was 5 of 5. For the same compound, the survivor count (dose: 50.0 mg/kg/injection, schedule: Q01DX005 (ip), vehicle: saline with Tween-80) was 2 of 5.
For `COC(=O)C1C2CCCN2OC1(C)CO` (stereo not given), the T/C (dose: 30.0 mg/kg/injection, schedule: Q01DX005 (ip), vehicle: saline) was 134 % of control and the T/C (dose: 60.0 mg/kg/injection, schedule: Q01DX005 (ip), vehicle: saline) was 132 % of control.
For `NC(N)=NS(=O)(=O)c1ccc(N=Nc2c(O)n(-c3ccccc3)n(-c3ccccc3)c2=O)cc1`, the survivor count [1] was 6 of 6.
With `O=C(NC(C(=O)O)c1ccc(CCl)cc1)c1ccccc1` (stereo not given) the survivor count [10] was 2 of 6.
In the case of `O=C(O)/C(Cl)=C(/Cl)C(=O)C(Cl)(Cl)Cl`, the T/C (dose: 6.25 mg/kg/injection, schedule: Q01DX009 (ip), vehicle: distilled water + Tween-80) is reported as 130 % of control, the T/C [13] is reported as 135 and 139 % of control and the T/C [14] is reported as 141 % of control. The survivor count [15] was 3 of 6, the survivor count [16] was 3 of 6 and the survivor count [17] was 1 of 6.
`c1cc[n+]2cc3cc4c(cc3cc2c1)OCO4` was tested, and the T/C [13] was 127 and 129 % of control, the survivor count [14] was 0 of 6 and the survivor count [15] was 0 of 6 and 1 of 6. For the same compound, the survivor count [16] was 0 of 6, the survivor count [17] was 0 of 6 and the survivor count (dose: 400.0 mg/kg/injection, schedule: Q01DX009 (ip), vehicle: distilled water + Tween-80) was 0 of 6.
In the case of `CC(=O)c1ccc(O)c(O)c1O`, the T/C (dose: 400.0 mg/kg/injection, schedule: Q01DX009 (ip), vehicle: saline) is reported as 133 [5 of 6 alive] and 137 % of control [5 of 6 alive].
`c1ccc2c(c1)NC(NC1Nc3ccccc3N1)N2` was tested, and the survivor count [18] was 6 of 6 and the survivor count [12] was 2 of 6.
`Oc1c(Cl)cc(Cl)cc1CN1CCCCC1` was tested, and the survivor count (dose: 400.0 mg/kg/injection, schedule: Q01DX009 (ip), vehicle: suspension in saline) was 5 of 6.
`Nn1cnc2c(nnn2Cc2ccccc2)c1=O` was tested, and the survivor count (dose: 400.0 mg/kg/injection, schedule: Q04DX002 (ip), vehicle: saline with Tween-80) was 2 of 6.
For `CNC(=O)OCc1c(COC(=O)NC)c(C)n(-c2ccc3c(c2)OCO3)c1C`, the T/C (dose: 12.5 mg/kg/injection, schedule: Q01DX009 (ip), vehicle: Klucel (hydroxypropylcellulose) (HPC)) was 132 and 146 % of control, the T/C (dose: 25.0 mg/kg/injection, schedule: Q01DX009 (ip), vehicle: Klucel (hydroxypropylcellulose) (HPC)) was 144 and 146 % of control and the survivor count (dose: 50.0 mg/kg/injection, schedule: Q01DX009 (ip), vehicle: Klucel (hydroxypropylcellulose) (HPC)) was 2 of 6.
With `O=C(O)/C(Cl)=C(\Cl)C(=O)Nc1ccccc1C(F)(F)F` the survivor count [10] was 0 of 6.
With `CN(C)Cc1cc2c(=O)[nH]c(N)nc2[nH]1` the survivor count (dose: 400.0 mg/kg/injection, schedule: Q01DX001 (ip), vehicle: Klucel (hydroxypropylcellulose) (HPC)) was 0 of 6.
In the case of `ClC(Cl)(Cl)C(=NNc1ccccc1)C(Cl)(Cl)Cl`, the survivor count [18] is reported as 4 of 6 and the survivor count [12] is reported as 0 of 6.
With `CC(C)(C)/C(=N\NC(=O)CCl)c1ccccc1` the survivor count [5] was 5 of 6, the survivor count [6] was 3 of 6 and the survivor count [11] was 0 of 6.
In the case of `CCN(CC)CCOc1ccc(N(CCCl)CCCl)cc1`, the T/C (dose: 6.25 mg/kg/injection, schedule: Q04DX003 (ip), vehicle: Klucel (hydroxypropylcellulose) (HPC)) is reported as 130 % of control, the survivor count (dose: 50.0 mg/kg/injection, schedule: Q04DX003 (ip), vehicle: Klucel (hydroxypropylcellulose) (HPC)) is reported as 6 of 6 and the survivor count (dose: 100.0 mg/kg/injection, schedule: Q04DX003 (ip), vehicle: Klucel (hydroxypropylcellulose) (HPC)) is reported as 0 of 6. The survivor count (dose: 200.0 mg/kg/injection, schedule: Q04DX003 (ip), vehicle: Klucel (hydroxypropylcellulose) (HPC)) was 0 of 6 and the survivor count (dose: 400.0 mg/kg/injection, schedule: Q04DX003 (ip), vehicle: Klucel (hydroxypropylcellulose) (HPC)) was 0 of 6.
In the case of `OCCCN1CCCCC1CO` (stereo not given), the T/C [6] is reported as 130 % of control and the T/C (dose: 400.0 mg/kg/injection, schedule: Q01DX009 (ip), vehicle: saline with Tween-80) is reported as 146 % of control.
